{
  "sequences": {"note": "Protein sequences, listed by entry. Tags and fused reporters are not part of them. Lines headed by an entry give the natural chain unless they say otherwise; changes in a name come on top.", "UniProt A0A499PM71": "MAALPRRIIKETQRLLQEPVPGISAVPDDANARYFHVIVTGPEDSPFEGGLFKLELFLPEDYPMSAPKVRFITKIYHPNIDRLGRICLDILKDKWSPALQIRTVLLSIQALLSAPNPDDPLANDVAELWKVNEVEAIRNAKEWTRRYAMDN"},
  "source": "paper PMC5515582",
  "target": "GPS2-His, full-length G protein pathway suppressor 2 of the small brown planthopper (small brown planthopper, Laodelphax striatellus)",
  "assay": "pull-down; His-tag pull-down with three recombinant proteins: GPS2-His on Ni Sepharose as bait for Ubc13-GST at a series of dilutions of CP-GST",
  "note": "No constants are given. Whether binding was seen depends on the method and setting. Binding seen in cells or lysates may run through a third protein. Binding can be weak; no strength is given.",
  "data": [
    {"substance": "Ubc13-GST, GST-tagged E2 ubiquitin-conjugating enzyme Ubc13 of the small brown planthopper (from UniProt A0A499PM71)", "values": [
      {"measurement": "binding", "result": "binds"}
    ]}
  ]
}
